This note sets out measurements from patent US20040087633A1, “Methylidene oxazolidinone compound and preparation method thereof” (Korea Institute of Science and Technology, priority 2002, published 2004).

Converted amounts (≈) assume the structure as drawn. Where two headings read alike, the source gives them in different places.

The test system of the experiment is S. aureus ATCC 29213. Briefly: Anti-microbial activity test in vitro (agar dilution MIC). It is filed as cell-based. To be noted: Staphylococcus aureus, read-out: Minimum inhibition concentration (MIC). The method, then:
Anti-microbial activity test in vitro
Strains were cultivated for 18 hours at 37° C. in Agar Dilution method using Mueller Hinton Agar, and then plane plates inoculated with the strains by diluting them two times gradually were aligned in a row. Minimum inhibition concentration (MIC, μg/ml) for the representative compounds of the present invention, Linezolid (LZD) and vancomycin (VAN) were decided through visual observation, and the results are shown in the following tables 2 and 3.
For orientation: Agar dilution tests growth on a series of plates holding different concentrations.

Turning to `CN[C@H](CC(C)C)C(=O)N[C@H]1C(=O)N[C@@H](CC(N)=O)C(=O)N[C@H]2C(=O)N[C@H]3C(=O)N[C@H](C(=O)N[C@H](C(=O)O)c4cc(O)cc(O)c4-c4cc3ccc4O)[C@H](O)c3ccc(c(Cl)c3)Oc3cc2cc(c3O[C@@H]2O[C@H](CO)[C@@H](O)[C@H](O)[C@H]2O[C@H]2C[C@](C)(N)[C@H](O)[C@H](C)O2)Oc2ccc(cc2Cl)[C@H]1O` [VAN, vancomycin, reference compound], under “ATCC29213, 18 h”, the MIC amounted to 1 µg/mL (≈ 0.69 µM).
Turning to `CC(=O)NC[C@H]1CN(c2ccc(N3CCOCC3)c(F)c2)C(=O)O1` [LZD, Linezolid, reference compound], the MIC (ATCC29213, S. aureus ATCC 29213, Agar Dilution method, Mueller Hinton Agar, 18 hours at 37° C.) amounted to 4 µg/mL (≈ 11.9 µM).
